The values that follow come from the supplement of paper PMC3334620.

Over roughly 33,000 sequences, “E-score (-0.5 to 0.5)” has its median near -0.016; the highest 2% begin near 0.3. This is one part of the list.

The assay concerns the target T1, Yer184c (UniProt P39961).
T1 sequence: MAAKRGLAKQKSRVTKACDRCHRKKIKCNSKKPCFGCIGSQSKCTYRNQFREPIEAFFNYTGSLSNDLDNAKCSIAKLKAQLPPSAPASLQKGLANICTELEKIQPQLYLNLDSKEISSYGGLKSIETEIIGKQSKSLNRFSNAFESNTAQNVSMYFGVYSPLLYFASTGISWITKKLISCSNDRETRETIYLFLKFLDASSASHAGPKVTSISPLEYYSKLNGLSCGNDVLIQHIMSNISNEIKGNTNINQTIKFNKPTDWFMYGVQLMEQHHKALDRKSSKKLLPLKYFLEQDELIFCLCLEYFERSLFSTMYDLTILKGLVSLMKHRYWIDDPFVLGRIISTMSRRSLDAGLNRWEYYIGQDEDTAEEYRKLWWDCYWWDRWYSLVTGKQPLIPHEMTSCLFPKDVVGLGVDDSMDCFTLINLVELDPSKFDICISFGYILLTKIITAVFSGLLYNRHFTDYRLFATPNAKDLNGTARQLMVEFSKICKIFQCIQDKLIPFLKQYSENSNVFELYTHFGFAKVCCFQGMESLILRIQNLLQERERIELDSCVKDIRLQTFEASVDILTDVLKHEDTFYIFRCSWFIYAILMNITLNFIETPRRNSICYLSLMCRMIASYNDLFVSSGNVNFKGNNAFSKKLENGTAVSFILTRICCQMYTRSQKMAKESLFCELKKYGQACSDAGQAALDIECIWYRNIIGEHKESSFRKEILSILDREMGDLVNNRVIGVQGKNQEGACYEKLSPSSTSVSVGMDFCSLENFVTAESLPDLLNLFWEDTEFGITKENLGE
Briefly: PBM E-score (8-mer binding enrichment) (E-score (-0.5 to 0.5)); higher = stronger / more preferred TF binding. The following applies: protein concentration: 100 nM; construct: GST-full length. The gist of the method: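 PURExpress in vitro transcription/translation supplied GST-tagged yeast transcription factors, either full-length or DNA-binding domain. Applied at about 100-200 nM to universal all-10-mer Agilent arrays double-stranded by primer extension, the bound protein was detected with fluorescent anti-GST. E-scores, modified Wilcoxon-Mann-Whitney statistics, were given by the Universal PBM Analysis Suite to ungapped eight-base words pooled with their reverse complements after masliner normalisation.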
With CGTTCCGA, the “PBM E-score” value turned out to be 0.236. For AGTCATAC the value was -0.163; for ACCCTACG, -0.235. For ACCGGGAT the value was 0.256. For GCACATCC the value was 0.0126; for GTCGCAAA, 0.0655; for ATCCTCTC, -0.0553. With GGGAGGCA, the “PBM E-score” value is -0.241. For ACAAAGAT the value was 0.196.

As for AGGCTGTA, the “PBM E-score” value was -0.0449. For CGTACCCC the value was 0.00233; for CCATGTCC, -0.1. For CTGGGTCC the value was -0.18; for AATGTCGT, 0.0182; for GGCCGCAA, 0.0291. To CGAACGTA belongs -0.0861; to ACGGACCC, 0.0704; to ACGTAAAT, 0.0506.

Consider AGAGACAC, for which the “PBM E-score” value was -0.119. For GCGAACCC the value was -0.0496; for AGAAAACT, 0.0223. For CGTTAGAA the value was 0.082. To ACTTCCTA belongs -0.0232; to ACACTAAA, 0.162; to AGCGCGTC, -0.166. For GCAGCACC, the “PBM E-score” value is -0.129.

Turning to AATGACTC, the “PBM E-score” value was -0.206. To CGGGTGCA belongs 0.0336. Regarding GTAACTAA, the “PBM E-score” value turned out to be 0.128. To CCCCTGCA belongs -0.285. For GACATCAC the value was -0.0307; for CAGTGGGC, -0.171; for CAATGGCC, -0.242. For ATACATTC the value was -0.152.

Consider CTAGGCAA, for which the “PBM E-score” value is -0.0736. To AATGACAG belongs -0.0175; to GACTTGCC, -0.199; to ACAAGAGA, 0.0222.

As for CTCTGTCC, the “PBM E-score” value is -0.0481. Turning to CATCACGA, the “PBM E-score” value is -0.0921. To CATATTGA belongs -0.0921; to AGCCCGGA, 0.314.

In the case of CATTGGAG, the “PBM E-score” value is -0.0285. To CAAACGCA belongs -0.156; to CGGTGCTA, 0.0883. To CATCTAAC belongs -0.0721; to CAACCCTG, -0.192; to ACCTACGT, -0.206.

For GGGACTTA, the “PBM E-score” value was -0.159. To CTACGAAG belongs -0.135. To ATCGCACA belongs -0.178; to CATGCACA, -0.0401; to GCGCATGA, -0.206. To AACGTGGG belongs -0.276; to AGCATCCG, 0.0773; to ATGCTCTG, -0.178. Regarding CCTCTCGA, the “PBM E-score” value is -0.29. CAATGTTC: the “PBM E-score” value was -0.0589. To GGATTGTA belongs 0.0746; to ACGGCGCC, 0.122; to ATATAGGC, 0.103. For ACCGAAAA the value was 0.349; for CAACAAGC, 0.0462.

As for AACCTTAA, the “PBM E-score” value is 0.145. To GGGGCTAA belongs -0.195. For GGGTGCTA the value was -0.161. To TGATTTAA belongs 0.259; to AAAGTCTC, -0.115. Take GCAATTGC: the “PBM E-score” value came to 0.189. For ACAGCGAG the value was 0.0226; for CCACGTGA, -0.0803; for GAGACGTA, 0.0588. TCTGAGCA: the “PBM E-score” value is -0.0905. For ACCCTATC the value was -0.143. As for ATTTGGAG, the “PBM E-score” value was -0.028. To CCTGTATA belongs -0.164; to ACATTAAA, 0.0822; to CCTATTTC, 0.0737. For CGTACTCC the value was 0.0471. ACCGATCG: the “PBM E-score” value was 0.128. Take AGTCATAT: the “PBM E-score” value worked out at 0.053.

Consider CGACAGGA, for which the “PBM E-score” value was determined as 0.21. For AAGCTTAG the value was 0.0825; for ACACTACC, -0.134.

Turning to AGTGCTAA, the “PBM E-score” value was determined as 0.0252.

In the case of TACCTCCA, the “PBM E-score” value is -0.249. As for GTCAGCCA, the “PBM E-score” value was -0.204.

Take AGGGATTG: the “PBM E-score” value is -0.119. For GCGCGGTA the value was 0.144. For GACTACCA the value was -0.183; for CCGGGTAA, 0.348. For GAGGCTGC the value was -0.192; for CGAGCCCC, -0.186; for CGATACCA, -0.0309.

As for AACCGTGC, the “PBM E-score” value worked out at 0.147. To ACATTCTA belongs 0.0333.

Consider CCAATAGA, for which the “PBM E-score” value was -0.0582. Consider CTGACTAA, for which the “PBM E-score” value is 0.0484. To CGGTAGCC belongs 0.0955; to GGGTATAA, -0.0177; to CTGTATCA, -0.111. GAAGAATC: the “PBM E-score” value was 0.0959. For CACTCTGA the value was -0.268; for CAGTTCGA, -0.13. To ATTGTTGG belongs 0.174.

For the sequence AGTGGGAA, the “PBM E-score” value is 0.0728.

For CATCTGGA, the “PBM E-score” value came to 0.012. For CCGGCGTA, the “PBM E-score” value was 0.313. In the case of CCTTCGAG, the “PBM E-score” value was -0.192.
